{"sequences": {"note": "The chains behind the UniProt entries cited, without tags or fusion partners.", "UniProt O23320": "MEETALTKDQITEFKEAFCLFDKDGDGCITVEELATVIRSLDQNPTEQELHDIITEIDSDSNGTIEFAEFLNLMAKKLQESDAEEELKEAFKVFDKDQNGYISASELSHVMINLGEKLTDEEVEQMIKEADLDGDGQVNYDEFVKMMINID"}, "source": "paper doi:10.1101/2023.01.24.525215", "key": {"[1]": {"target": "T1, ACA8-NLuc (Arabidopsis thaliana) (UniProt Q9LF79)", "T1 sequence": "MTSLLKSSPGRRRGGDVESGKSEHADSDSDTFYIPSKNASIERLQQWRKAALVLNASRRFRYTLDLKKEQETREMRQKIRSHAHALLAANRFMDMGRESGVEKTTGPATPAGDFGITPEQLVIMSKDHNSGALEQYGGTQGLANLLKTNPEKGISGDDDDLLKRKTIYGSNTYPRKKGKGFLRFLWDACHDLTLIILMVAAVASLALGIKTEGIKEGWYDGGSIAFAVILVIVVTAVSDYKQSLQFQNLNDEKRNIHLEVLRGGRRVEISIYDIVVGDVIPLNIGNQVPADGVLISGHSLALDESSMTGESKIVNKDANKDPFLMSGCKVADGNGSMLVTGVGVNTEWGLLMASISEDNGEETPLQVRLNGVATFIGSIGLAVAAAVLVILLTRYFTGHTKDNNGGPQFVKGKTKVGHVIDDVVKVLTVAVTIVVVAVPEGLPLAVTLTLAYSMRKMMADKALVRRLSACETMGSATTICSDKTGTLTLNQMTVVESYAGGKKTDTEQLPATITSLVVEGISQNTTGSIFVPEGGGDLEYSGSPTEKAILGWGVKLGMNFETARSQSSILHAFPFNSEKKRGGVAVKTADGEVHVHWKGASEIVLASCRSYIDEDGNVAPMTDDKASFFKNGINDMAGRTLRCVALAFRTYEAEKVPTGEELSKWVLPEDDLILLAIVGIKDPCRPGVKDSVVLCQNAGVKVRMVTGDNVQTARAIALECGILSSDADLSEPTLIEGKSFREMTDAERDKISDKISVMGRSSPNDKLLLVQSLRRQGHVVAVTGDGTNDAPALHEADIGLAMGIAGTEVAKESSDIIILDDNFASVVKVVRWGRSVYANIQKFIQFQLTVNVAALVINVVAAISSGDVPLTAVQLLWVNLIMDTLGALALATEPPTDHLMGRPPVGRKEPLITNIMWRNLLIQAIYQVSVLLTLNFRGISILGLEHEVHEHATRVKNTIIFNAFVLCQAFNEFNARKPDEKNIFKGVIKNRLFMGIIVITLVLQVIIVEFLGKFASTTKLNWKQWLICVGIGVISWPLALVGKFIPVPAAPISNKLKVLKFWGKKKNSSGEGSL", "assay": "split reporter"}, "[2]": {"target": "T2, WRKY53 (1-217 aa)-BK (Arabidopsis thaliana) (UniProt Q9SUP6)", "T2 sequence": "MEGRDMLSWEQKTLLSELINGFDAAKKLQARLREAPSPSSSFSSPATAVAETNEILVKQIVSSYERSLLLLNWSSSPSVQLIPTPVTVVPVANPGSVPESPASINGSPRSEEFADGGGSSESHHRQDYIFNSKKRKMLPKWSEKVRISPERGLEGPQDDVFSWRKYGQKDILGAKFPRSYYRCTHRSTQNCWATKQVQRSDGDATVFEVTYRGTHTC", "assay": "two-hybrid"}, "[3]": {"target": "T3, ACA8 (1-180 aa)-BK (Arabidopsis thaliana) (UniProt Q9LF79)", "T3 sequence": "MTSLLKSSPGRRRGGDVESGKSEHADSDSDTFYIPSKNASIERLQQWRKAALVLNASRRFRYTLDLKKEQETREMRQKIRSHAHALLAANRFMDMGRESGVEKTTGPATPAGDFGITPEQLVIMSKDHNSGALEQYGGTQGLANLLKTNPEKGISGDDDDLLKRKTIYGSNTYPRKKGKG", "assay": "two-hybrid"}, "[4]": {"target": "T4, WRKY53-NLuc (Arabidopsis thaliana) (UniProt Q9SUP6)", "T4 sequence": "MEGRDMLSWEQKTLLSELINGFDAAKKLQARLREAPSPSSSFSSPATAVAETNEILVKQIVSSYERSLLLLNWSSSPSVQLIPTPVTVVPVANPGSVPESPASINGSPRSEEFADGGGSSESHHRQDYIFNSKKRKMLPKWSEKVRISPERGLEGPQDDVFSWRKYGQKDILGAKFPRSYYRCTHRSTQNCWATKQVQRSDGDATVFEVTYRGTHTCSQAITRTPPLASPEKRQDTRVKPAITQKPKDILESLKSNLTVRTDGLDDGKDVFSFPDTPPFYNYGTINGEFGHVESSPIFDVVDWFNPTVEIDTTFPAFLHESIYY", "assay": "split reporter"}}, "note": "No constants are given. Whether binding was seen depends on the method and setting. For some of these results: In cells and extracts the contact can be indirect. Some results given as binding are weak or reduced against the parent protein; the word gives no strength. For some of these results: Tags and fused reporters may be left off the sequences shown.", "data": [{"substance": "CML8-CLuc (from UniProt O23320 1-151)", "values": [{"measurement": "binding", "setting": "[1]", "value": "binds"}]}, {"substance": "CAM5-AD (CALMODULIN 5 in pGADT7) (from UniProt Q682T9 1-149)", "values": [{"measurement": "binding", "setting": "[2]", "value": "binds"}]}, {"substance": "CML8-AD (CALMODULIN-LIKE 8 in pGADT7) (from UniProt O23320 1-151)", "values": [{"measurement": "binding", "setting": "[3]", "value": "binds"}]}, {"substance": "CAM5-CLuc (from UniProt Q682T9 1-149)", "values": [{"measurement": "binding", "setting": "[4]", "value": "binds"}]}]}
